From publication doi:10.1101/2023.04.25.538284 (bioRxiv, 2023)
No constants are given. Whether binding was seen depends on the method and setting. For some of these results: Binding seen in cells or lysates may run through a third protein. Some results given as binding are weak or reduced against the parent protein; the word gives no strength.

Assays:
[1] = biological target: T1, pGBKT7-SnRK2.4 (Arabidopsis thaliana) (UniProt P43291); experiment: two-hybrid
T1 sequence: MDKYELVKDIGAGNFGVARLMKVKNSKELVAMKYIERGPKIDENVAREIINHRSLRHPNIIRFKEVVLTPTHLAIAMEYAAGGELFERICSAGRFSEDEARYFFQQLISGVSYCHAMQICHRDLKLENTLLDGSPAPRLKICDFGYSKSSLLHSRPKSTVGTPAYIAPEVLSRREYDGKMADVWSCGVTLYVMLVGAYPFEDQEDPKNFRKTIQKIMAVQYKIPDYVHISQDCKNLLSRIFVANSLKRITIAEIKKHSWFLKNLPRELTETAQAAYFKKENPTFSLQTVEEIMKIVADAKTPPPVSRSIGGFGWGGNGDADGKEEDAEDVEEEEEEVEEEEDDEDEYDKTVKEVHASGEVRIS

[2] = biological target: T2, pGBKT7-SnRK2.6 (Arabidopsis thaliana) (UniProt Q940H6); experiment: two-hybrid
T2 sequence: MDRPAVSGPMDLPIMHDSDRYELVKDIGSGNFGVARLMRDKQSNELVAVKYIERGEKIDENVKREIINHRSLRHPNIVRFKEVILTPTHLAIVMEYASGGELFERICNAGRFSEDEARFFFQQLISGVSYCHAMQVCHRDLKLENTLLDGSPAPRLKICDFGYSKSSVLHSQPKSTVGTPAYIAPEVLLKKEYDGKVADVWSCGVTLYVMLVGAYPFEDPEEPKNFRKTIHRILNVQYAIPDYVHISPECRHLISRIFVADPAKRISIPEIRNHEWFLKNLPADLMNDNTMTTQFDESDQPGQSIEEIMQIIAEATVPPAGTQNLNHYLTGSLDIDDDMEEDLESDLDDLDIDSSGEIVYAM

[3] = biological target: T3, SnRK2.4-YNE (Arabidopsis thaliana) (UniProt P43291); experiment: split reporter
T3 sequence: T1 sequence

[4] = biological target: T4, SnRK2.6-YNE (Arabidopsis thaliana) (UniProt Q940H6); experiment: split reporter
T4 sequence: T2 sequence

B1: SIZ1 in pGADT7 (enzyme, UniProt Q680Q4-3 1-873)
chain: MDLEANCKEKLSYFRIKELKDVLTQLGLSKQGKKQELVDRILTLLSDEQAARLLSKKNTVAKEAVAKLVDDTYRKMQVSGASDLASKGQVSSDTSNLKVKGEPEDPFQPEIKVRCVCGNSLETDSMIQCEDPRCHVWQHVGCVILPDKPMDGNPPLPESFYCEICRLTRADPFWVTVAHPLSPVRLTATTIPNDGASTMQSVERTFQITRADKDLLAKPEYDVQAWCMLLNDKVLFRMQWPQYADLQVNGVPVRAINRPGGQLLGVNGRDDGPIITSCIRDGVNRISLSGGDVRIFCFGVRLVKRRTLQQVLNLIPEEGKGETFEDALARVRRCIGGGGGDDNADSDSDIEVVADFFGVNLRCPMSGSRIKVAGRFLPCVHMGCFDLDVFVELNQRSRKWQCPICLKNYSVEHVIVDPYFNRITSKMKHCDEEVTEIEVKPDGSWRVKFKRESERRELGELSQWHAPDGSLCPSAVDIKRKMEMLPVKQEGYSDGPAPLKLGIRKNRNGIWEVSKPNTNGLSSSNRQEKVGYQEKNIIPMSSSATGSGRDGDDASVNQDAIGTFDFVANGMELDSISMNVDSGYNFPDRNQSGEGGNNEVIVLSDSDDENDLVITPGPAYSGCQTDGGLTFPLNPPGIINSYNEDPHSIAGGSSGLGLFNDDDEFDTPLWSFPSETPEAPGFQLFRSDADVSGGLVGLHHHSPLNCSPEINGGYTMAPETSMASVPVVPGSTGRSEANDGLVDNPLAFGRDDPSLQIFLPTKPDASAQSGFKNQADMSNGLRSEDWISLRLGDSASGNHGDPATTNGINSSHQMSTREGSMDTTTETASLLLGMNDSRQDKAKKQRSDNPFSFPRQKRSVRPRMYLSIDSDSE
binding [1]: binds | binding [2]: binds

B2: SIZ1-YCE (enzyme, UniProt Q680Q4-3 1-873)
chain: B1 chain
binding [3]: binds | binding [4]: binds
